The target of the assay is MUC2 D1D2D3 (residues 21 to 1259 followed by a His6 tag) (human) (UniProt Q02817). The experiment in a line: condition: only at pH 6.0 and above (sharp transition to large species between pH 6.0 and pH 5.8); dynamic light scattering; MUC2 D1D2D3 at 0.3 mg/mL in 50 mM MES at varying pH, 150 mM NaCl, 37 °C; samples at pH 6.0 and above (before the transition to large species); both purified.

No constants are given. Whether binding was seen depends on the method and setting. Sequences can lack the tags named with a protein.

B1: MUC2 D1D2D3 (residues 21 to 1259 followed by a His6 tag) (domain or fragment, human, UniProt Q02817 21-1259, looked up)
chain: SELQTEGRTRNHGHNVCSTWGNFHYKTFDGDVFRFPGLCDYNFASDCRGSYKEFAVHLKRGPGQAEAPAGVESILLTIKDDTIYLTRHLAVLNGAVVSTPHYSPGLLIEKSDAYTKVYSRAGLTLMWNREDALMLELDTKFRNHTCGLCGDYNGLQSYSEFLSDGVLFSPLEFGNMQKINQPDVVCEDPEEEVAPASCSEHRAECERLLTAEAFADCQDLVPLEPYLRACQQDRCRCPGGDTCVCSTVAEFSRQCSHAGGRPGNWRTATLCPKTCPGNLVYLESGSPCMDTCSHLEVSSLCEEHRMDGCFCPEGTVYDDIGDSGCVPVSQCHCRLHGHLYTPGQEITNDCEQCVCNAGRWVCKDLPCPGTCALEGGSHITTFDGKTYTFHGDCYYVLAKGDHNDSYALLGELAPCGSTDKQTCLKTVVLLADKKKNVVVFKSDGSVLLNELQVNLPHVTASFSVFRPSSYHIMVSMAIGVRLQVQLAPVMQLFVTLDQASQGQVQGLCGNFNGLEGDDFKTASGLVEATGAGFANTWKAQSSCHDKLDWLDDPCSLNIESANYAEHWCSLLKKTETPFGRCHSAVDPAEYYKRCKYDTCNCQNNEDCLCAALSSYARACTAKGVMLWGWREHVCNKDVGSCPNSQVFLYNLTTCQQTCRSLSEADSHCLEGFAPVDGCGCPDHTFLDEKGRCVPLAKCSCYHRGLYLEAGDVVVRQEERCVCRDGRLHCRQIRLIGQSCTAPKIHMDCSNLTALATSKPRALSCQTLAAGYYHTECVSGCVCPDGLMDDGRGGCVVEKECPCVHNNDLYSSGAKIKVDCNTCTCKRGRWVCTQAVCHGTCSIYGSGHYITFDGKYYDFDGHCSYVAVQDYCGQNSSLGSFSIITENVPCGTTGVTCSKAIKIFMGRTELKLEDKHRVVIQRDEGHHVAYTTREVGQYLVVESSTGIIVIWDKRTTVFIKLAPSYKGTVCGLCGNFDHRSNNDFTTRDHMVVSSELDFGNSWKEAPTCPDVSTNPEPCSLNPHRRSWAEKQCSILKSSVFSICHSKVDPKPFYEACVHDSCSCDTGGDCECFCSAVASYAQECTKEGACVFWRTPDLCPIFCDYYNPPHECEWHYEPCGNRSFETCRTINGIHSNISVSYLEGCYPRCPKDRPIYEEDLKKCVTADKCGCYVEDTHYPPGASVPTEETCKSCVCTNSSQVVCRPEEGKILNQTQDGAFCYWEICGPNGTVEKHFNICSIT
notes: Mucin-2 (MUC2), human intestinal gel-forming mucin, amino-terminal D1D2D3 region, residues 21 to 1259, without CysD1; The dimers assemble into two-start helical tubules at acidic pH; also called D1D2D3 fragment; MUC2 amino-terminal fragment spanning the D1D2D3 region but lacking CysD1; source: HEK 293F, transient transfection, purified from culture medium (Ni-NTA); not shown: His6, C-terminal, …
With B1, the binding result is “no binding”.
